These are yes or no findings as the source states them, for the method shown. For some of these results: In cells and extracts the contact can be indirect. Some results given as binding are weak or reduced against the parent protein; the word gives no strength.
How the values were obtained:
[1] = target: recombinant, Myc-tagged SVEP1 (Sushi, von Willebrand factor type A, EGF and pentraxin domain containing 1) (mouse) (UniProt A2AVA0); test: co-IP; confirmation of the proteomic pulldown: Myc-tagged SVEP1 in enriched media of murine VSMCs, anti-c-Myc magnetic beads, aliquot of the beads kept as pulldown fraction for validation; only the target purified
[2] = target: biotinylated BSA (bovine serum albumin) (bovine) (UniProt P02769); test: BLI; biotinylated BSA loaded on Octet SA biosensors as negative control; SVEP1 5-180 nM as analyte; 0.01% Tween 20 in calcium-containing DPBS; both purified
[3] = target: T1, PEAR1ECD (R&D Systems) (UniProt Q5VY43); test: co-IP; reciprocal: recombinant SVEP1-Myc and PEAR1ECD mixed in PBS with 1 mg/mL BSA, 0.01% Tween 20, 10 mM Ca2+; 2 ug primary antibody and beads; SVEP1 found with PEAR1ECD; negative control non-specific IgG; immunoblot; both purified
T1 sequence: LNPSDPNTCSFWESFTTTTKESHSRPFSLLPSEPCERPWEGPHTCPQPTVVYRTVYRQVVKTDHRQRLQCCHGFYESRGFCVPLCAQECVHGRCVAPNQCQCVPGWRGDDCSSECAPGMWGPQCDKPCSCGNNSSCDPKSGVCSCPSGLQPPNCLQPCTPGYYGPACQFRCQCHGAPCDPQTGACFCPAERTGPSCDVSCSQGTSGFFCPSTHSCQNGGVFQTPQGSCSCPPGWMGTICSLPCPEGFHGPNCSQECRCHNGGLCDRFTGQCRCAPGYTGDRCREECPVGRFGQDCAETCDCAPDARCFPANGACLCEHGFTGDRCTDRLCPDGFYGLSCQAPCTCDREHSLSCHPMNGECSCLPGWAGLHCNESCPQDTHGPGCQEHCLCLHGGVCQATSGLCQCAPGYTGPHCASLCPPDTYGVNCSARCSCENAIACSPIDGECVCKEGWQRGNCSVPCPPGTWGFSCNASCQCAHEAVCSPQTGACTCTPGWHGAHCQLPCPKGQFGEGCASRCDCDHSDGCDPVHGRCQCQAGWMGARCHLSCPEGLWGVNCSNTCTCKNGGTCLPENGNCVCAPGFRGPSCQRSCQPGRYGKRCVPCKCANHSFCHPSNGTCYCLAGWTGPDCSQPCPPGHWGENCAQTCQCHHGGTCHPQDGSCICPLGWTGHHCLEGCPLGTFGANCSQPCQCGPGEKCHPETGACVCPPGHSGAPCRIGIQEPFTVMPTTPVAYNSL

Amino acid sequences for entries named in this document (tags omitted). Residues count along the entry.
UniProt A2AVA0, residues 18-3567: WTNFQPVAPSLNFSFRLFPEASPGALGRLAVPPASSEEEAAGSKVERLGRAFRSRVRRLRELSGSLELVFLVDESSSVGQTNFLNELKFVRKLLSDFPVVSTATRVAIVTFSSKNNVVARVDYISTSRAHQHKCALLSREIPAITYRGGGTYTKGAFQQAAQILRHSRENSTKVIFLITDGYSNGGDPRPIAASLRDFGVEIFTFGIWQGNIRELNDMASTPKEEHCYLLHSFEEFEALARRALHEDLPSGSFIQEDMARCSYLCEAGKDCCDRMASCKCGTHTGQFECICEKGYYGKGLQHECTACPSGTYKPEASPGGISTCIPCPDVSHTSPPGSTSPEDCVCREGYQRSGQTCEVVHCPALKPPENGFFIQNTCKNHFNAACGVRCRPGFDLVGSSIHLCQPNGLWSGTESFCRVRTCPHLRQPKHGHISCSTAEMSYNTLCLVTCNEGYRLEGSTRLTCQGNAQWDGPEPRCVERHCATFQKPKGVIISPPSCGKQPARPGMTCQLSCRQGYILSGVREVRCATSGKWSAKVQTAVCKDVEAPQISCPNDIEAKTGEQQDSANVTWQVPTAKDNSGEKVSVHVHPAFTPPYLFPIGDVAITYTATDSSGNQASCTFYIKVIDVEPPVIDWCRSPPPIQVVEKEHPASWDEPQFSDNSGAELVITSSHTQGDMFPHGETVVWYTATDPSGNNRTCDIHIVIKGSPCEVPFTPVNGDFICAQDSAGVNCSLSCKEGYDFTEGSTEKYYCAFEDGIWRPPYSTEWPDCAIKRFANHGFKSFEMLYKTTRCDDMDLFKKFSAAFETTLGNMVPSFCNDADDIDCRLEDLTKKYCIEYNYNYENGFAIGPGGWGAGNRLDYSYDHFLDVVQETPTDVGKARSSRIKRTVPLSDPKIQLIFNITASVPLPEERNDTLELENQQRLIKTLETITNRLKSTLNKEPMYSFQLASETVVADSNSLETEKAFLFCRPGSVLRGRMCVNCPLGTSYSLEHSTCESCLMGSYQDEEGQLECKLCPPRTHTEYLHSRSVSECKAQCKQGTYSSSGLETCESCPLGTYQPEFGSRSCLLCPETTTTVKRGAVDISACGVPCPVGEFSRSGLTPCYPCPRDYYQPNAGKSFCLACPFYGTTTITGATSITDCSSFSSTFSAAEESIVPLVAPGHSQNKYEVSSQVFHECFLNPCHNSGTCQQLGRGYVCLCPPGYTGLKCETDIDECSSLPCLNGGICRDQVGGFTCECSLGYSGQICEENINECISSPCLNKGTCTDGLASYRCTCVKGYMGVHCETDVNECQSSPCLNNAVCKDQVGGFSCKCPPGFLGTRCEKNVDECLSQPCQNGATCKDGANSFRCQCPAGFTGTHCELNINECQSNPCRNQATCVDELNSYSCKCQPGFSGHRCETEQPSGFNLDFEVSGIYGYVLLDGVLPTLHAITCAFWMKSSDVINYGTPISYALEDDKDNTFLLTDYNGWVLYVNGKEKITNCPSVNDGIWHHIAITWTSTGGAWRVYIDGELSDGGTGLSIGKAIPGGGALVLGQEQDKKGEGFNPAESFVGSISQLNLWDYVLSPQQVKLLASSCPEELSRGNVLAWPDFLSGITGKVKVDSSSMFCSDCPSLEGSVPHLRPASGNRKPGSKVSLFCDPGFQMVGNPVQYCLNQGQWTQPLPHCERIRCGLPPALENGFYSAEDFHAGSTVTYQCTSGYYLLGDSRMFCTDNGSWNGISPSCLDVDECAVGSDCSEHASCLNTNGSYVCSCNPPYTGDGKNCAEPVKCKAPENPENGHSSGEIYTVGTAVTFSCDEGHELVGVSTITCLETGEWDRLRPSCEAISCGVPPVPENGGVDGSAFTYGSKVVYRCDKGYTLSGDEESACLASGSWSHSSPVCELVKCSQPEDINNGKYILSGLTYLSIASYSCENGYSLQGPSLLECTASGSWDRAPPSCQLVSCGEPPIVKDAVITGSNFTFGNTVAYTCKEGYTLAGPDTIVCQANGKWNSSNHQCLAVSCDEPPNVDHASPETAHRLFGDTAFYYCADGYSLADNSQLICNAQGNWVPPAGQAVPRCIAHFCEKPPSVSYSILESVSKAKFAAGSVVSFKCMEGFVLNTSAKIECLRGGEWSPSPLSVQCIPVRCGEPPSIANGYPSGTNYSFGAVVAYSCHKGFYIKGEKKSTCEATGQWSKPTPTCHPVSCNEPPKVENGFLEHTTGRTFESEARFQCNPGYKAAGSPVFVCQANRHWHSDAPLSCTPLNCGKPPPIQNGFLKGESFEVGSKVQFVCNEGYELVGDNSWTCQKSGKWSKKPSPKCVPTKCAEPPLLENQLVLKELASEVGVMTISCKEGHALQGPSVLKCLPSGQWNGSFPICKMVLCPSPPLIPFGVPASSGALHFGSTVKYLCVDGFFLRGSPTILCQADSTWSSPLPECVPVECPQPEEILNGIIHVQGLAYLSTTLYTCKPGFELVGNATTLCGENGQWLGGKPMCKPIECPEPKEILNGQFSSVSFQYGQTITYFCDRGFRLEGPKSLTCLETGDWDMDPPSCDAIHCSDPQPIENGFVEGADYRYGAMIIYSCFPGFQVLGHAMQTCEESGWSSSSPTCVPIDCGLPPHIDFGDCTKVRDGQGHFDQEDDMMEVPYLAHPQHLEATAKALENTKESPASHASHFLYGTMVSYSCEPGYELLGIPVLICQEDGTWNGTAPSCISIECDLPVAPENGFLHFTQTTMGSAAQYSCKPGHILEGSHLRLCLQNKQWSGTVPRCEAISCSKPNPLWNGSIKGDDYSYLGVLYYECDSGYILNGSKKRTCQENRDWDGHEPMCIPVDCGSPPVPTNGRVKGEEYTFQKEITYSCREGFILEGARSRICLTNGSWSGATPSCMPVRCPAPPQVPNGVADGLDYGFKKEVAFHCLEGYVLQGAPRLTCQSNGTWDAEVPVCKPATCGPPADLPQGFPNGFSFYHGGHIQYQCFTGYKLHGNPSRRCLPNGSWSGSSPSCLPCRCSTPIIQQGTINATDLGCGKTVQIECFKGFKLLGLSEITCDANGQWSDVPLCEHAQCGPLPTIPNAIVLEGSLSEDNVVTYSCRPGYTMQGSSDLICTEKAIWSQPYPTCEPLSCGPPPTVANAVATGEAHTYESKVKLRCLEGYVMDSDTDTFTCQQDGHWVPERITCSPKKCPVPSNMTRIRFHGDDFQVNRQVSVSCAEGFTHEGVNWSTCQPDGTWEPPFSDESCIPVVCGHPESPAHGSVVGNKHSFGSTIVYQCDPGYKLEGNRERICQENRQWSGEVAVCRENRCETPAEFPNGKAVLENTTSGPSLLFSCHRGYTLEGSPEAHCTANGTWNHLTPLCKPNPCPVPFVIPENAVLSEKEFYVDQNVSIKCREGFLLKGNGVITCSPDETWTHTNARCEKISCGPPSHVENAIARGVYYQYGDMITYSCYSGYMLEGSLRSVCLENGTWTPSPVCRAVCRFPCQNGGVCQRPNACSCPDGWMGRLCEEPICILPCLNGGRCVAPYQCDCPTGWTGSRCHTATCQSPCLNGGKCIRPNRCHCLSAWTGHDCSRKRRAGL
UniProt P02769, residues 25-607: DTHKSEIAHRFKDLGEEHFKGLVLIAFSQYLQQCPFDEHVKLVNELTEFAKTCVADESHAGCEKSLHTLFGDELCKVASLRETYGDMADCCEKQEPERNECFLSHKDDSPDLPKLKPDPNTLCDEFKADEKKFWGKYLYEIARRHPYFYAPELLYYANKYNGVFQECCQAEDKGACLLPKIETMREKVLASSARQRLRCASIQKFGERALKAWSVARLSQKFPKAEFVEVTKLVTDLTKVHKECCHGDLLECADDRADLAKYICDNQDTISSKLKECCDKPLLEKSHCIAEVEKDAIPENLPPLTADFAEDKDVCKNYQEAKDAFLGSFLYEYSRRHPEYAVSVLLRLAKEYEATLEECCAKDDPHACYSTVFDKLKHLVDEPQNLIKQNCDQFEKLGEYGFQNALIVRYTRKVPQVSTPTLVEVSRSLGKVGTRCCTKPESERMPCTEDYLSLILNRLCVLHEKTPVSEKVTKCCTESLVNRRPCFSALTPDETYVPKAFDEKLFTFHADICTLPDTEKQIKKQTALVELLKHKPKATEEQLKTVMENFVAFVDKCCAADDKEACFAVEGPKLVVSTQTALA
UniProt P11276, residues 33-2477: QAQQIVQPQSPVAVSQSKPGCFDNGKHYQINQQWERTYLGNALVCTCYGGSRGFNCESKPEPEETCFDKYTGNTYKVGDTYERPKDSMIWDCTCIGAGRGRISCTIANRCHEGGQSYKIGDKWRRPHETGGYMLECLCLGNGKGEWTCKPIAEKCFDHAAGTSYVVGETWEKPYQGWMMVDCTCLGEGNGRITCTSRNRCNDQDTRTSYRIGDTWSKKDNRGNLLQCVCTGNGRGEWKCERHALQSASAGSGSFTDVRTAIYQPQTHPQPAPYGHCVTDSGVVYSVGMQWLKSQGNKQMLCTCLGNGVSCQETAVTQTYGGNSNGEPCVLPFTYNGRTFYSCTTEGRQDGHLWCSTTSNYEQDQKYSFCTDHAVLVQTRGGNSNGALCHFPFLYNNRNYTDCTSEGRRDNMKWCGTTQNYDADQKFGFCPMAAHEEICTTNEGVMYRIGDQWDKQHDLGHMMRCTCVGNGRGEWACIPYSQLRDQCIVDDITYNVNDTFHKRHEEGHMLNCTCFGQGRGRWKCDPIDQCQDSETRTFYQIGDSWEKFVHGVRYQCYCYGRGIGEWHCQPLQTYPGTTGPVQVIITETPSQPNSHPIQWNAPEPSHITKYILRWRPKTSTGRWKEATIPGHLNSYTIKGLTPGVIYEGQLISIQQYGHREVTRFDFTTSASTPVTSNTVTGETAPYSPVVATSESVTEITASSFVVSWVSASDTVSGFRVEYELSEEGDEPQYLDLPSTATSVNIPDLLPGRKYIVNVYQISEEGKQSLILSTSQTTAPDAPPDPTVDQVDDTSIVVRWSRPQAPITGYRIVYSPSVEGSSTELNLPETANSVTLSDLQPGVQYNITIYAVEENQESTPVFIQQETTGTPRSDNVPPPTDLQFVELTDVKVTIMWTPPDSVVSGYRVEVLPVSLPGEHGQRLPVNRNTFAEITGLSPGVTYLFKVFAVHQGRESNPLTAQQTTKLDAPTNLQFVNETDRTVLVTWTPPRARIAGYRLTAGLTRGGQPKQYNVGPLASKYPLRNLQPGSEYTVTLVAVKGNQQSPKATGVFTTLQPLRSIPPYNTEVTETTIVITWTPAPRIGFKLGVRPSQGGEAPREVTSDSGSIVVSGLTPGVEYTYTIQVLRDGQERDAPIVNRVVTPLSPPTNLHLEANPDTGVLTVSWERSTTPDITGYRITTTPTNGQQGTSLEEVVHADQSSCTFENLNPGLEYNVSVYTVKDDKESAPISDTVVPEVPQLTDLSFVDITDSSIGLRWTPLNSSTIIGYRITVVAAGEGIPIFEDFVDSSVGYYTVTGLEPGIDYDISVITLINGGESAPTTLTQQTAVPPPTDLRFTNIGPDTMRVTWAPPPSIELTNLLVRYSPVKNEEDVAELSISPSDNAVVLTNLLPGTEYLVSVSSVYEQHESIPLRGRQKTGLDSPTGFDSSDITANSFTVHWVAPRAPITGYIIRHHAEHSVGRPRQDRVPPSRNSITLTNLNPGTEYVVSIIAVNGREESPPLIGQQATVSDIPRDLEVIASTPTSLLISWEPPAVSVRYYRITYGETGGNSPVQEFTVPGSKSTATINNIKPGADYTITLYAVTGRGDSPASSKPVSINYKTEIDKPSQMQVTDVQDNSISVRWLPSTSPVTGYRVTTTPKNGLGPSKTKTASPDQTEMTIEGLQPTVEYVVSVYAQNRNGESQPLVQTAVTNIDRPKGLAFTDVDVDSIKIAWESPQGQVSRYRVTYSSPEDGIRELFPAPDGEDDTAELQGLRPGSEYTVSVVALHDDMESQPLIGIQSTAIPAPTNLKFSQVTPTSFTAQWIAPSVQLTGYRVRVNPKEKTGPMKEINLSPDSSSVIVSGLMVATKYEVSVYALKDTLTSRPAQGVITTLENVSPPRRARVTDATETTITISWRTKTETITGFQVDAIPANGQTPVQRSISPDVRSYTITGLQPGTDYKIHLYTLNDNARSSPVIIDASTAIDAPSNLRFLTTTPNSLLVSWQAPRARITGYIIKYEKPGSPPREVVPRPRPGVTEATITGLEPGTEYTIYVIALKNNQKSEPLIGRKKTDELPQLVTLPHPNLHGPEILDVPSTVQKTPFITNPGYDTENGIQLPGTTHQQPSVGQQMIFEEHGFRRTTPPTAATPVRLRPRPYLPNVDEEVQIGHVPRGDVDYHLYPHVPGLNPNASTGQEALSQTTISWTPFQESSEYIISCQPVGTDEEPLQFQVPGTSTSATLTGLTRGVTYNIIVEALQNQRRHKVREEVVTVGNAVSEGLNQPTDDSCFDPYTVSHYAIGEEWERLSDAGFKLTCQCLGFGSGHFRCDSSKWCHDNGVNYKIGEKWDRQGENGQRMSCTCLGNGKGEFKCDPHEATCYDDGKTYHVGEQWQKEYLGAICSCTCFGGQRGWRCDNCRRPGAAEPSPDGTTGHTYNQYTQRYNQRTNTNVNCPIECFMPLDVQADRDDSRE

[4] = target: recombinant, Myc-tagged SVEP1 (Sushi, von Willebrand factor type A, EGF and pentraxin domain containing 1) (mouse) (UniProt A2AVA0); test: co-IP; recombinant SVEP1-Myc and PEAR1ECD mixed 3:1 by mass (about equimolar) in PBS with 1 mg/mL BSA, 0.01% Tween 20, 10 mM Ca2+, 2 h; PEAR1ECD found with SVEP1; negative control no SVEP1; immunoblot; both purified

Fibronectin (from UniProt P11276 33-2477)
binding [1]: binds

recombinant, Myc-tagged SVEP1 (Sushi, von Willebrand factor type A, EGF and pentraxin domain containing 1) (from UniProt A2AVA0 18-3567)
binding [2]: no binding (tested: 5-180 nM SVEP1) | binding [3]: binds

B1: PEAR1ECD (R&D Systems) (domain or fragment, UniProt Q5VY43 21-755)
chain: T1 sequence
binding [4]: binds

Reference: publication PMC9932102, “SVEP1 is an endogenous ligand for the orphan receptor PEAR1” (Nature Communications, 2023)
